Measurements reported in PubChem BioAssay AID1508597 (Cure First, 2020)
Aim: 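Genes whose silencing sensitises or protects ovarian cancer cells against rucaparib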 (primary screen). System: human ovarian carcinoma lines grown from tumours: OCI-P5x (papillary serous) and OCI-C5x (clear cell). Reagent: siRNA pool against human genes, 1.25 pmol siRNA per well. Duration: 72 h or 96 h, depending on the cell culture. Conditions: rucaparib 20 µM (about IC30) or vehicle, present until read-out. Rucaparib or vehicle: Vehicle. Cell line: OCI-C5x (clear cell). Read-out: 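Luminescent ATP-based viability assay read 72 or 96 h after transfection, depending on culture, given as normalised percent viability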. Scale: viability, normalised: higher = more viable cells remaining. Hit rule: 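Active when normalised viability falls below 80 percent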. Meaning of the calls: active = viability under 80%; inactive = viability 80% or more.
This is a random part of the about 2,100 reagents, in one setting of the screen. 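Calls flag viability under 80% in either arm, not effects specific to rucaparib; the reference for percent is not stated.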 A reagent listed more than once was tested more than once; the source does not tell the runs apart. Not stated in the record: the 100% reference.

| gene | technical replicate | viability, normalised (%) | outcome |
| --- | --- | --- | --- |
| SMPD3 (sphingomyelin phosphodiesterase 3) | 1 | 61.3 | active |
| SMPD3 (sphingomyelin phosphodiesterase 3) | 2 | 62.6 | active |
| SMPD3 (sphingomyelin phosphodiesterase 3) | 3 | 55.8 | active |
| CHEK1 (checkpoint kinase 1) | 1 | 41.7 | active |
| CHEK1 (checkpoint kinase 1) | 1 | 27.6 | active |
| CHEK1 (checkpoint kinase 1) | 2 | 29.5 | active |
| CHEK1 (checkpoint kinase 1) | 2 | 31.6 | active |
| CHEK1 (checkpoint kinase 1) | 3 | 39.1 | active |
| CHEK1 (checkpoint kinase 1) | 3 | 37.4 | active |
| HNRNPAB (heterogeneous nuclear ribonucleoprotein A/B) | 1 | 51.2 | active |
| HNRNPAB (heterogeneous nuclear ribonucleoprotein A/B) | 2 | 61.3 | active |
| HNRNPAB (heterogeneous nuclear ribonucleoprotein A/B) | 3 | 43.2 | active |
| MAP1B (microtubule associated protein 1B) | 1 | 44.8 | active |
| MAP1B (microtubule associated protein 1B) | 2 | 53 | active |
| MAP1B (microtubule associated protein 1B) | 3 | 55 | active |

A run of entries from the list above, for reference:
| gene | technical replicate | viability, normalised (%) | outcome |
| --- | --- | --- | --- |
| SMPD3 (sphingomyelin phosphodiesterase 3) | 3 | 55.8 | active |
| CHEK1 (checkpoint kinase 1) | 1 | 41.7 | active |

The results go on:
| gene | technical replicate | viability, normalised (%) | outcome |
| --- | --- | --- | --- |
| ZNF384 (zinc finger protein 384) | 1 | 63.7 | active |
| ZNF384 (zinc finger protein 384) | 2 | 58.1 | active |
| ZNF384 (zinc finger protein 384) | 3 | 49.7 | active |
| EHMT2 (euchromatic histone lysine methyltransferase 2) | 1 | 60.4 | active |
| EHMT2 (euchromatic histone lysine methyltransferase 2) | 2 | 55.4 | active |
| EHMT2 (euchromatic histone lysine methyltransferase 2) | 3 | 57.3 | active |
| NFATC1 (nuclear factor of activated T cells 1) | 1 | 32.8 | active |
| NFATC1 (nuclear factor of activated T cells 1) | 2 | 22 | active |
| NFATC1 (nuclear factor of activated T cells 1) | 3 | 42.7 | active |
